Measurements from PubChem BioAssay AID504444 (National Center for Advancing Translational Sciences (NCATS), 2011).
Hit rate of the full screen: of about 360,000 compounds, about 7,500 (2.1%) were called active. The shares of active, inactive and inconclusive entries below differ from those in the screen. Calls come from the whole dose curve; as a rule, active = well fitted inhibition curve with a large enough effect; inconclusive = small, poorly fitted or top-dose-only effect, or effect the other way; inactive = flat fitted curve, though single readings scatter. Potencies of inconclusive entries are doubtful fits and often do not repeat.

Test: Nrf2 qHTS screen for inhibitors; note: nearly all actives have a fitted effect of over 60% in size
Settings: A549 ARE-Fluc reporter, luciferase luminescence, 18-24 h; activity change, negative = inhibition: at 46 µM (top of the series)
In short: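 A549 ARE_Fluc cells (5000/well, 5% FBS OPTI-MEM) pre-incubated 2 h, then treated with compounds 18-24 h at 37C/5% CO2 in concentration-response. CellTiter-Fluor viability read first; BugLite luciferase luminescence after 15 min at room temperature gives Nrf2 activity.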
% is set by controls: 0 for no effect and ±100 for the full control effect; potency is the fitted concentration of half-maximal effect.

SMILES | Potency | activity change, negative = inhibition
Cc1c(C(=O)N2CCCC2)sc(NC(=O)c2ccc(Cl)cc2)c1C#N | inconclusive: 14.6 µM [falling, partial curve] | 
Cc1cccc2cc(/C=N/Nc3ccc(C(=O)O)cc3)c(Cl)nc12 | inconclusive: 0.366 µM [activator, full curve, poor fit] | 
CC(Sc1nc2ccccc2s1)C(=O)c1c(N)n(C)c(=O)n(C)c1=O (stereo not drawn) | inconclusive: 25.9 µM [activator, partial curve, poor fit] | 
COc1ccc(/C=N/OCC(=O)NC(c2ccccc2)c2ccccc2)c(OC)c1 | inconclusive: 29.1 µM [falling, single point] | 
CCC1CCCCN1C(=O)CCn1c(=O)oc2ccccc21 (stereo not drawn) |  | inactive: 17.4%
O=C(COC(=O)c1ccc([N+](=O)[O-])s1)Nc1ccc(Cl)cn1 | inconclusive: 6.51 µM [activator, single point] | 
COC(=O)C1=C(C(=O)OC)[C@@H]2N(Cc3ccccc3)c3ccccc3[C@@]23C[C@@H](C(=O)OC)N(C(=O)c2ccc(Br)cc2)C3=N1 | active: 16.4 µM | 
O=C(O)CC1(CC(=O)NCc2ccc(C(F)(F)F)cc2)CCCCC1 | inconclusive: 9.2 µM [falling, partial curve] | 
Cn1c(CC2C(=O)Nc3ccc(Br)cc32)nc2ccccc2c1=O (stereo not drawn) | inconclusive: 20.6 µM [falling, single point] | 
O=C(O)CCC1(CCC(=O)O)CCCC(CCC(=O)O)(CCC(=O)O)C1=O |  | inactive: 3.97%
CCC(=O)Nc1cccc(NC(=S)NC(=O)c2ccc(C)cc2)c1 | inconclusive: 1.46 µM [activator, full curve] | 
CCN(CC)C(=O)COC(=O)c1cc(-c2ccc(OC)cc2)nc2ccccc12 | active: 23.1 µM | 
COc1cc(C(=O)OCC(=O)N2CCCCC2C)cc(NC(=O)c2cccs2)c1OC (stereo not drawn) | inconclusive: 18.4 µM [falling, partial curve] | 
COc1ccc(-c2cc(C(F)(F)F)nc(NCc3cccs3)n2)cc1 | inconclusive: 23.1 µM [falling, single point] | 
Cc1cc(C)n2nc(SCC(=O)N(C(C)C)C(C)C)nc2n1 | inconclusive: 18.4 µM [activator, partial curve, poor fit] | 
Cc1cc(NC(=O)Nc2ccccc2Cl)no1 | inconclusive: 14.6 µM [activator, partial curve, poor fit] | 
Cc1cccc(C(=O)N2CCN(c3ncnc4c3cnn4-c3ccccc3)CC2)c1 | active: 18.4 µM | 
OCC1OC(n2ccc3c(NO)ncnc32)C(O)C1O (stereo not drawn) | inconclusive: 0.461 µM [falling, full curve, poor fit] | 
CCOC(=O)c1c(NC(=O)c2ccccc2C)sc2c1CCCC2 | inconclusive: 4.11 µM [activator, full curve] | 
CCC(C)(C)C1CCC2(CC1)NC(=O)N(CC(=O)N(C)Cc1ccc(OC(F)F)cc1)C2=O (stereo not drawn) | inconclusive: 7.31 µM [falling, partial curve] | 
Cc1ccccc1NC(=O)c1onc2c1CCCC2 | inconclusive: 4.11 µM [activator, full curve] | 
CCN1CCn2c3c(c4cc(Cl)ccc42)CCCC31 (stereo not drawn) |  | inactive: -23.9%

SMILES | Potency | activity change, negative = inhibition
C=CCn1c(C)cc(C(=O)CSc2nc3ccccc3c(=O)[nH]2)c1C | inconclusive: 29.1 µM [falling, single point] | 
Oc1ccccc1-c1nc(/C=C/c2ccccc2)nn1-c1ccccc1 | inactive | 
Cc1ccccc1CN1CCN(C(=O)CC(C)C)CC1 |  | inactive: 2.44%
O=C(NC1CCN(C(=O)Nc2ccccc2Cl)CC1)c1ccccc1 | inconclusive: 25.9 µM [activator, partial curve, poor fit] | 
O=C(O)c1cc(N/N=C/c2cccc3ccccc23)ccc1Cl | inconclusive: 9.2 µM [activator, partial curve] | 
CN(C)c1ccc(CNc2ncnc3sccc23)cc1 | active: 4.61 µM | 
COC(=O)c1sc(NC(=O)c2c(-c3ccccc3)noc2C)nc1C | inconclusive: 25.9 µM [falling, partial curve, poor fit] | 
COc1ccc(N2CCCCn3c2nc2c3c(=O)n(C)c(=O)n2C)cc1 | inconclusive: 0.731 µM [falling, full curve, poor fit] | 
Cc1ccc(NC(=O)NC(=O)CN2C(=O)NC3(CCCCCCC3)C2=O)c(C)c1 | inconclusive: 20.6 µM [falling, single point] | 
O=C1CC(N2CCN(S(=O)(=O)c3ccccc3F)CC2)C(=O)N1c1ccccc1Cl (stereo not drawn) | inconclusive: 13 µM [activator, partial curve, poor fit] | 
O=S(=O)(c1ccccc1)N1CCC(O)(CSc2ccccc2)CC1 | inconclusive: 29.1 µM [falling, single point] | 
O=c1cc2nc(-c3ccccc3F)nc(SCc3ccc(Br)cc3)n2[nH]1 | inconclusive: 18.4 µM [activator, single point] | 
Cc1cccc(Cn2c(SCc3ccc(C(=O)NCc4cccs4)cc3)nc3cccnc32)c1 | inconclusive: 20.6 µM [falling, partial curve, poor fit] | 
O=C(CN1CCCCCC1)Nc1ccc(Br)cn1 |  | inactive: 4.91%
Cc1ccccc1-n1c2nc(=O)[nH]c(=O)c-2cc2c(Cl)cccc21 | inconclusive: 20.6 µM [falling, single point] | 
Cc1ccc(C2(c3ccccc3)NC(=O)N(CC(=O)NCc3ccco3)C2=O)cc1C (stereo not drawn) | inconclusive: 18.4 µM [falling, partial curve] | 
Cc1cc(C)cc(N2CCCn3c2nc2c3c(=O)[nH]c(=O)n2C)c1 | inconclusive: 16.4 µM [falling, single point] | 
CC(=O)Nc1nonc1NC(=O)c1ccc(C(C)(C)C)cc1 | inconclusive: 4.11 µM [activator, single point] | 
CCN(CC)CCCNC(=O)C(C)n1nc(C)n2c(cc3occc32)c1=O (stereo not drawn) |  | inactive: 15.1%
O=C(COC(=O)CCS(=O)(=O)c1ccccc1)Nc1ccccc1 |  | inactive: -5.93%
Cc1onc(-c2ccccc2)c1-c1nnc(CN2CCN(S(=O)(=O)c3ccccc3F)CC2)o1 | inconclusive: 11.6 µM [falling, partial curve, poor fit] | 

2 consecutive compounds out of the list so far, quoted:
SMILES | Potency | activity change, negative = inhibition
O=C1CC(N2CCN(S(=O)(=O)c3ccccc3F)CC2)C(=O)N1c1ccccc1Cl (stereo not drawn) | inconclusive: 13 µM [activator, partial curve, poor fit] | 
O=S(=O)(c1ccccc1)N1CCC(O)(CSc2ccccc2)CC1 | inconclusive: 29.1 µM [falling, single point] | 
